In publication PMC11377309:
These are yes or no findings as the source states them, for the method shown.

Assays:
HLA-G2 (human) [1] = target: HLA-G2 (human) (UniProt P17693); test: Cell-Int (cell-cell conjugates counted by flow cytometry); WOP cells stably expressing HLA-G isoforms and transfected with GFP, detached with EDTA, against 293-F cells with receptor and RFP, ratio 1:2, 1-2 h at 25°C; background: β2m-transduced WOP cells
HLA-G3 (human) [2] = target: HLA-G3 (human) (UniProt P17693); test: as above
HLA-G4 (human) [3] = target: HLA-G4 (human) (UniProt P17693); test: as above
HLA-G1/β2m (human) [4] = target: T1, HLA-G1/β2m (human) (UniProt P17693+P61769); test: as above
[5] = target: HLA-G1 expressed without co-expressed β2m (human) (UniProt P17693); test: as above
HLA-G2 (human) [6] = target: HLA-G2 (human) (UniProt P17693); test: Cell-Int (cell-cell conjugates counted by flow cytometry); K562 cells stably expressing GFP and HLA-G isoforms against 293-F cells with receptor and RFP, ratio 1:2, 1-2 h at 25°C
HLA-G3 (human) [7] = target: HLA-G3 (human) (UniProt P17693); test: as above
HLA-G4 (human) [8] = target: HLA-G4 (human) (UniProt P17693); test: as above
HLA-G1/β2m (human) [9] = target: T1, HLA-G1/β2m (human); test: as above
[10] = target: HLA-G1 expressed without co-expressed β2m (human) (UniProt P17693); test: as above
HLA-G1/β2m (human) [11] = target: T1, HLA-G1/β2m (human); test: Cell-Int (cell-cell conjugates counted by flow cytometry); two batches of 293-F cells, each transfected with one membrane protein and GFP or RFP, mixed in FreeStyle 293 Expression Medium, 1-2 h at 25°C (Juno/Izumo1 also at 4°C and 37°C and from 10 min to 3 h); percent GFP+ RFP+ double-positive events

Measured: binding

B1: CD160 (receptor, UniProt O95971 25-159)
chain: GCINITSSASQEGTRLNLICTVWHKKEEAEGFVVFLCKDRSGDCSPETSLKQLRLKRDPGIDGVGEISSQLMFTISQVTPLHSGTYQCCARSQKSGIRLQGHFFSILFTETGNYTVTGLKQRQHLEFSHNEGTLS
no binding: all assays above
